Experimental data from US20250136702A1, “HUMAN LIFR ANTIGEN BINDING PROTEIN, PREPARATION METHOD THEREFOR, AND APPLICATION THEREOF” (NONA BIOSCIENCES (SUZHOU) CO., LTD., priority 2020, published 2025).
These are yes or no findings as the source states them, for the method shown. Binding calls can cover weak binding; strength is not graded here.

Key:
[1] = biological target: monkey LIFR-ECD protein (monkey); assay: ELISA on plate-coated monkey LIFR-ECD (1 ug/mL), anti-human IgG Fc-HRP, OD450nm against mAb concentration in nM
[2] = biological target: monkey LIFR-ECD protein (monkey); assay: ELISA
[3] = biological target: human LIFR-ECD protein (human); assay: ELISA
[4] = biological target: human LIFR-ECD protein (human); assay: ELISA on plate-coated human LIFR-ECD (1 ug/mL), anti-human IgG Fc-HRP, OD450nm against mAb concentration in nM

Measured: binding

B1: PR301172 (antibody, human IgG1, kappa, V domains shown)
VH: EVQLLESGGGLVQPGGSLRLSCATSGFTFSNYAMTWVRQAPGKGLEWVVISGSGFLTYYADAVKGRFTISRVNSKNSLYLQMNSLRAEDTAVYYCTKGGILTGFDYWGQGTLVTVSS
VL: KIVMTQSPATLSVSPGERATLSCRASQNLNSNLAWYQQTPGQAPRLLIYGASTRAPGIPARFSGSGSGTEFTLTISSLQSEDFVVYFCQQYNNWPRTFGQGTKVEIKR
binds: all assays above

B2: PR301195 (antibody, human IgG1, kappa, V domains shown)
VH: QVQLVESGGGVVQPGRSLRLSCAASGFTFSSYGMNWVRQAPGKGLEWVAVIWFDGSIKYYADSVKGRFTISRDNSKNTLYLQMNSLRAEDTAIYYCARGQLVQDFWGRGTLVTVSS
VL: DIQMTQSPSTLSASVGDRVTITCRASQSISSWLAWYQQKPGKAPNLLMYKASNLESGVPSRFSGSGSGTEFTLTITSLQPDDFASYYCQQYKSNPLTFGGGTKVEIKR
binds: all assays above

B3: PR301218 (antibody, human IgG1, kappa, V domains shown)
VH: QVQLVESGGGVVQPGRSLRLSCAASGFTFSSYGMHWVRQAPGKGLEWVAVIWFDGSVKYYADSVKGRFTISRDNSKNTLYLQMNSLRAEDTAIYYCARGQLVQDFWGRGTLVTVSS
VL: DIQMTQSPSTLSASVGDRVTITCRASQSISSWLAWYQQKPGKAPNLLMYKASNLESGVPSRFSGSGSGTEFTLTITSLQPDDFASYYCQQYKSNPLTFGGGTKVEIKR
binds: all assays above

B4: PR301211 (antibody, human IgG1, kappa, V domains shown)
VH: QVQLVESGGGVVQPGRSLRLSCAASGFTFSSYGMHWVRQAPGKGLEWVAVIWFDGSLKYYADSVKGRFAISRDNSKNTLYLQMNSLRAEDTAIFYCARGQLVQDLWGRGTLVTVSS
VL: DIQMTQSPSTLSASVGDRVTITCRASQSISSWLAWYQQKPGKAPNLLMYKASNLESGVPSRFSGSGSGTEFTLTITSLQPDDFASYYCQQYKSNPLTFGGGTKVEIKR
binds: all assays above

B5: PR301196 (antibody, human IgG1, kappa, V domains shown)
VH: QVQLVESGGGVVQPGRSLRLSCAASGFTFSSYGMNWVRQAPGKGLEWVAVIWFDGSIKYYADSVKGRFTISRDNSKNTLYLQMNSLRAEDTAIYYCARGQLVQDFWGRGTLVTVSS
VL: DIQMTQSPSTLSASVGDRVTITCRASQSISSWLAWYQQKPGKAPNLLMYKASNLENGVSSRFSGSGSGTEFTLTITSLQPDDFATYYCQQYKSNPLTFGGGTKVEIKR
binds: all assays above

B6: PR301215 (antibody, human IgG1, kappa, V domains shown)
VH: QVQLVESGGGVVQPGRSLRLSCAASGFTFSSYGMHWVRQAPGKGLEWVAVIWFDGSIKYYADSVKGRFTISRDNSKNTLYLQMNSLRAEDTAIYYCARGQLVQDFWGRGTLVTVSS
VL: DIQMTQSPSTLSASVGDRVTITCRASQSISSWLAWYQQKPGKAPNLLMYKASNLESGVPSRFSGSGSGTEFTLTITSLQPDDFASYYCQQYKSNPLTFGGGTKVEIKR
binds: all assays above

B7: PR301127 (antibody, human IgG1, kappa, V domains shown)
VH: EVQLLQSGGGLVQPGGSLRLSCAASGFTFSNYAMTWVRQAPGKGLEWVSTISGSGAFTYYADAVKGRFTISRVNSKNSLDLQMNSLRAEDTAVYYCAKGGILTGFDNWGQGTLVTVSS
VL: DIQMTQSPSTLSASVGDRVTITCRASQSISSWLAWYQQKPGKAPKLLIYKASSLESGVPSRFSGSGSGTEFSFTISSLQPDDFATYYCQQYKSFSPGGLTFGGGTKVEIKR
binds: all assays above

B8: PR301177 (antibody, human IgG1, kappa, V domains shown)
VH: QVQLVESGGGVVQPGRSLRLSCVASGFTFSSYGMNWVRQAPGKGLDWVTVIWFDGSNKYYADSVKGRFTISRDNSKNTLYLQMNSLRAEDTAMYYCARGERTLDLWGQGTLVTVSS
VL: DIQMTQSPSTLSASVGDRVTITCRASQSISSWLAWYQQKPGKAPKLLIYKASSLESGVPSRFSGSGSGTEFSFTISSLQPDDFATYYCQQYKSFSPGGLTFGGGTKVEIKR
binds: all assays above
